Assay results from PubChem BioAssay (NCATS).
This list was built around the results that the source calls inconclusive (neither active nor inactive); the mix of calls is not that of the screen. Potencies beside an inconclusive call are fits to weak or partial responses and may not hold up. A note “side channel” means that the fit belongs to a control or component signal, not to the main read-out. Active and inactive are the calls of the source. Unless noted, calls follow the shape of the full dose curve.

The chains behind the UniProt entries cited, without tags or fusion partners. Where a name states a change or a piece, a line headed by the entry shows the natural chain unless it says otherwise.
UniProt P10828: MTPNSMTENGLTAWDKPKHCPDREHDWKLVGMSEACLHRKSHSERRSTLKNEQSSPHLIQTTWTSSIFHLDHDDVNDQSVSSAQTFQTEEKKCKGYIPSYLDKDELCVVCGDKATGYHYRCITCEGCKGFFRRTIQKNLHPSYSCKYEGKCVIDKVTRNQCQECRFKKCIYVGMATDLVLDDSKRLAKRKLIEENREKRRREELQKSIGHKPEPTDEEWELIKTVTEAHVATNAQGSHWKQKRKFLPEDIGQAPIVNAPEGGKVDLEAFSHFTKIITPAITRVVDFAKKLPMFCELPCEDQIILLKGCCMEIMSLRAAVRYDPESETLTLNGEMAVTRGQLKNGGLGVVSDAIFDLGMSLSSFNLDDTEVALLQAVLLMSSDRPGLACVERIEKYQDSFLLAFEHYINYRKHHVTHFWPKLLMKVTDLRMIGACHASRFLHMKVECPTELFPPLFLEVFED
UniProt P19793: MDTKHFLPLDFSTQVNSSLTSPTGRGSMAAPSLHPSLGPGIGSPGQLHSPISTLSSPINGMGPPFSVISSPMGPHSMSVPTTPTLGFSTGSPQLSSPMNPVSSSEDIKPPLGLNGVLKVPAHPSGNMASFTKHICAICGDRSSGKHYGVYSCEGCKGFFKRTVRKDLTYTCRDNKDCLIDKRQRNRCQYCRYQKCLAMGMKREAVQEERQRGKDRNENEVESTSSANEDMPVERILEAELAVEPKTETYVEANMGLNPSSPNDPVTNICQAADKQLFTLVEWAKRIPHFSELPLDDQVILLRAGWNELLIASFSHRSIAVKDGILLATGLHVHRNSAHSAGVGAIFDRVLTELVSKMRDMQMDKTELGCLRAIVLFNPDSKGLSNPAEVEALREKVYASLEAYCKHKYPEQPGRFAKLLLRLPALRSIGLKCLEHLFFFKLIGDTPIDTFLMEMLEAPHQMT

Target: Thyroid hormone receptor beta (Homo sapiens) (UniProt P10828)
Assay: qHTS assay for small molecule agonists of thyroid hormone receptor beta signaling (AID 588545);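 as to activation: 0% = DMSO only and 100% = 10 nM T3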
Conditions: TR-UAS-bla GripTite HEK 293, beta-lactamase ratio, agonist mode, 18 h; activation: at 76.7 µM, percent of T3 response, DMSO as zero
How it was run: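 Compounds were tested as agonists in TR-UAS-bla-GripTite HEK 293 cells. After 18 hrs at 37 C, CCF4 substrate was added and fluorescence read after 2 hrs at room temperature.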
Potency is read from the fitted curve at half-maximal effect.

Row | SMILES | Potency | activation
1 | [O]=[Cr](=[O])([OH])[O][Cr](=[O])(=[O])[OH] | inconclusive: 39.8 µM [cytotoxic, side channel, partial curve, poor fit] | 
2 | COP(=S)(OC)Oc1ccc(SC)c(C)c1 | inconclusive: 5.01 µM [side channel, falling, full curve, poor fit] | 
3 | CC[C@H](C)[C@H]1O[C@]2(C=C[C@@H]1C)C[C@@H]1C[C@@H](C/C=C(\C)[C@@H](O[C@H]3C[C@H](OC)[C@@H](O[C@H]4C[C@H](OC)[C@@H](O)[C@H](C)O4)[C@H](C)O3)[C@@H](C)/C=C/C=C3\CO[C@@H]4[C@H](O)C(C)=C[C@@H](C(=O)O1)[C@]34O)O2 | inconclusive: 14.1 µM [fluorescent, side channel, full curve] | 
4 | Cc1cc(SCc2sc(-c3ccc(C(F)(F)F)c(F)c3)nc2C)ccc1OCC(=O)O | inconclusive: 3.55 µM [side channel, rising, full curve, poor fit] | 
5 | C[C@H]1CC[C@@H]2[C@@H](C)[C@H]3[C@H](C[C@H]4[C@@H]5CC=C6CC(O[C@@H]7O[C@H](CO)[C@H](O)[C@H](O[C@@H]8O[C@H](CO)[C@@H](O)[C@H](O)[C@H]8O)[C@H]7O[C@H]7O[C@@H](C)[C@H](O)[C@@H](O)[C@H]7O)CC[C@]6(C)[C@H]5CC[C@]34C)N2C1 (stereo partly drawn) | inconclusive: 35.5 µM [side channel, falling, partial curve, poor fit] | 
6 | Nc1ccc(Cl)cc1N |  | inconclusive: -48%
7 | CN(C)[C@@H]1C(=O)C(C(N)=O)=C(O)[C@@]2(O)C(=O)C3=C(O)c4c(O)cccc4[C@@](C)(O)[C@H]3[C@H](O)[C@@H]12 |  | inconclusive: 14.8%
8 | CC[n+]1c(-c2ccccc2)c2cc(N)ccc2c2ccc(N)cc21 | inconclusive: 6.31 µM [side channel, falling, full curve, poor fit] | 
9 | C[C@]12C/C(=C/O)C(=O)C[C@@H]1CC[C@@H]1[C@@H]2CC[C@@]2(C)[C@H]1CC[C@]2(C)O |  | inactive: -12.8%
10 | O=[N+]([O-])C(Br)(CO)CO | inconclusive: 0.0224 µM [side channel, falling, full curve, poor fit] | 
11 | CCCCCCCCCCCC[N+](C)(C)CCOc1ccccc1 | inconclusive: 28.2 µM [side channel, falling, full curve, poor fit] | 
12 | Cc1ccc(N=CN(C)C=Nc2ccc(C)cc2C)c(C)c1 | inconclusive: 44.7 µM [side channel, rising, single point] | 
13 | O=S(=O)(c1ccc(Cl)cc1)c1ccc(Cl)cc1 |  | inconclusive: -23.1%
14 | CC(C)(C)C(O)C(Oc1ccc(Cl)cc1)n1cncn1 (stereo not drawn) | inconclusive: 0.0089 µM [side channel, falling, full curve, poor fit] | 

Target: Retinoic acid receptor RXR-alpha (Homo sapiens) (UniProt P19793)
Assay: qHTS assay for small molecule antagonists of retinoid X receptor alpha signaling (AID 588546; active = well fitted inhibition curve with a large enough effect in the signal ratio, with a control signal flat, not every such curve was filed as active; inconclusive = small, poorly fitted or top-dose-only effect, or effect the other way, or a change in a side signal; inactive = no such curve, though single readings can be large or run the other way; the % refers to the signal ratio;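 as to max response: cells stimulated with 9-cis-retinoic acid as agonist; % is scaled to controls: 0 for no effect and ±100 for the full control effect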)
Conditions: HEK293T RXRa-UAS-bla, beta-lactamase ratio, antagonist mode
How it was run: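 Beta-lactamase reporter inhibition, read as CCF4 fluorescence ratio (ex 405, em 460/530 nm) after 2 h at RT. HEK293T UAS-bla cells, 2500/well, were stimulated with 9-cis-RA at 500 or 100 nM final alongside test compound for 18 h at 37 C.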

Row | SMILES | max response | Potency
15 | [O]=[Cr](=[O])([OH])[O][Cr](=[O])(=[O])[OH] | inconclusive: -46.7% | 
16 | COc1nn(CSP(=S)(OC)OC)c(=O)s1 | inconclusive: -36.1% | 
17 | CC[C@H](C)[C@H]1O[C@]2(C=C[C@@H]1C)C[C@@H]1C[C@@H](C/C=C(\C)[C@@H](O[C@H]3C[C@H](OC)[C@@H](O[C@H]4C[C@H](OC)[C@@H](O)[C@H](C)O4)[C@H](C)O3)[C@@H](C)/C=C/C=C3\CO[C@@H]4[C@H](O)C(C)=C[C@@H](C(=O)O1)[C@]34O)O2 |  | active: 12.6 µM
18 | C[C@H]1CCC[C@H](O)CCCCCc2cc(O)cc(O)c2C(=O)O1 | inactive: -34.3% | 
19 | COP(=S)(OC)SCN1C(=O)c2ccccc2C1=O | inconclusive: -23.4% | 
20 | COP(=O)(OC)C(O)C(Cl)(Cl)Cl (stereo not drawn) |  | inconclusive: 20 µM [inhibitor, full curve, poor fit]
21 | O=[N+]([O-])c1c2ccccc2cc2ccccc12 | inconclusive: -3.23% | 
22 | Oc1cccc2cccnc12 | inconclusive: -34.4% | 
23 | C[C@H]1CC[C@@H]2[C@@H](C)[C@H]3[C@H](C[C@H]4[C@@H]5CC=C6CC(O[C@@H]7O[C@H](CO)[C@H](O)[C@H](O[C@@H]8O[C@H](CO)[C@@H](O)[C@H](O)[C@H]8O)[C@H]7O[C@H]7O[C@@H](C)[C@H](O)[C@@H](O)[C@H]7O)CC[C@]6(C)[C@H]5CC[C@]34C)N2C1 (stereo partly drawn) |  | inconclusive: 50.1 µM [cytotoxic, side channel, partial curve, poor fit]
24 | CO/C=C(/C(=O)OC)c1ccccc1Oc1cc(Oc2ccccc2C#N)ncn1 |  | inconclusive: 44.7 µM [inhibitor, partial curve, poor fit]
25 | CN1C[C@H](C(=O)N[C@]2(C)O[C@@]3(O)[C@@H]4CCCN4C(=O)[C@H](Cc4ccccc4)N3C2=O)C=C2c3cccc4[nH]cc(c34)C[C@H]21 |  | inconclusive: 44.7 µM [cytotoxic, side channel, partial curve, poor fit]
26 | Oc1ccc(Cl)cc1Cc1ccccc1 |  | inconclusive: 35.5 µM [inhibitor, partial curve, poor fit]
27 | CC[n+]1c(-c2ccccc2)c2cc(N)ccc2c2ccc(N)cc21 |  | active: 8.91 µM
28 | C=C(C)[C@H]1Cc2c(ccc3c2O[C@@H]2COc4cc(OC)c(OC)cc4[C@@H]2C3=O)O1 |  | active: 20 µM
29 | C[C@]12C/C(=C/O)C(=O)C[C@@H]1CC[C@@H]1[C@@H]2CC[C@@]2(C)[C@H]1CC[C@]2(C)O |  | inconclusive: 39.8 µM [side channel, rising, partial curve, poor fit]
30 | O=[N+]([O-])C(Br)(CO)CO |  | inconclusive: 44.7 µM [cytotoxic, side channel, partial curve, poor fit]
31 | Oc1cc(Cl)ccc1Oc1ccc(Cl)cc1Cl |  | active: 44.7 µM
32 | CCCCCCCCCCCCCCCC[N+](C)(C)C |  | inconclusive: 50.1 µM [cytotoxic, side channel, single point]
33 | Clc1ccc(COC(Cn2ccnc2)c2ccc(Cl)cc2Cl)cc1 (stereo not drawn) | inconclusive: -52.3% | 
34 | C[C@@H]1O[C@@H](O[C@H]2C[C@@H](O)[C@]3(CO)[C@H]4[C@H](O)C[C@]5(C)[C@@H](C6=CC(=O)OC6)CC[C@]5(O)[C@@H]4CC[C@]3(O)C2)[C@H](O)[C@H](O)[C@H]1O |  | inconclusive: 0.126 µM [side channel, rising, full curve]
35 | CC(C)Nc1ccc(Nc2ccccc2)cc1 | inconclusive: -55.8% | 
36 | CCCCCCCCCCCC[N+](C)(C)CCOc1ccccc1 |  | inconclusive: 25.1 µM [side channel, rising, single point]
37 | Cc1ccc(N=CN(C)C=Nc2ccc(C)cc2C)c(C)c1 | inactive: -33.7% | 
38 | CCOP(=S)(OCC)Oc1ccc2c(C)c(Cl)c(=O)oc2c1 | inconclusive: -17.7% | 

Not a retest: entries from further up.
Row | SMILES | max response | Potency
20 | COP(=O)(OC)C(O)C(Cl)(Cl)Cl (stereo not drawn) |  | inconclusive: 20 µM [inhibitor, full curve, poor fit]
21 | O=[N+]([O-])c1c2ccccc2cc2ccccc12 | inconclusive: -3.23% | 
